Data as given in PMC7652397.
Results are given in words; binding and its absence hold for the method and conditions named. Binding seen in cells or lysates may run through a third protein. Some results given as binding are weak or reduced against the parent protein; the word gives no strength. Values belong to the molecule of their own block, whether it stands above or below them.

The chains behind the UniProt entries cited, without tags or fusion partners.
UniProt Q9ESK9: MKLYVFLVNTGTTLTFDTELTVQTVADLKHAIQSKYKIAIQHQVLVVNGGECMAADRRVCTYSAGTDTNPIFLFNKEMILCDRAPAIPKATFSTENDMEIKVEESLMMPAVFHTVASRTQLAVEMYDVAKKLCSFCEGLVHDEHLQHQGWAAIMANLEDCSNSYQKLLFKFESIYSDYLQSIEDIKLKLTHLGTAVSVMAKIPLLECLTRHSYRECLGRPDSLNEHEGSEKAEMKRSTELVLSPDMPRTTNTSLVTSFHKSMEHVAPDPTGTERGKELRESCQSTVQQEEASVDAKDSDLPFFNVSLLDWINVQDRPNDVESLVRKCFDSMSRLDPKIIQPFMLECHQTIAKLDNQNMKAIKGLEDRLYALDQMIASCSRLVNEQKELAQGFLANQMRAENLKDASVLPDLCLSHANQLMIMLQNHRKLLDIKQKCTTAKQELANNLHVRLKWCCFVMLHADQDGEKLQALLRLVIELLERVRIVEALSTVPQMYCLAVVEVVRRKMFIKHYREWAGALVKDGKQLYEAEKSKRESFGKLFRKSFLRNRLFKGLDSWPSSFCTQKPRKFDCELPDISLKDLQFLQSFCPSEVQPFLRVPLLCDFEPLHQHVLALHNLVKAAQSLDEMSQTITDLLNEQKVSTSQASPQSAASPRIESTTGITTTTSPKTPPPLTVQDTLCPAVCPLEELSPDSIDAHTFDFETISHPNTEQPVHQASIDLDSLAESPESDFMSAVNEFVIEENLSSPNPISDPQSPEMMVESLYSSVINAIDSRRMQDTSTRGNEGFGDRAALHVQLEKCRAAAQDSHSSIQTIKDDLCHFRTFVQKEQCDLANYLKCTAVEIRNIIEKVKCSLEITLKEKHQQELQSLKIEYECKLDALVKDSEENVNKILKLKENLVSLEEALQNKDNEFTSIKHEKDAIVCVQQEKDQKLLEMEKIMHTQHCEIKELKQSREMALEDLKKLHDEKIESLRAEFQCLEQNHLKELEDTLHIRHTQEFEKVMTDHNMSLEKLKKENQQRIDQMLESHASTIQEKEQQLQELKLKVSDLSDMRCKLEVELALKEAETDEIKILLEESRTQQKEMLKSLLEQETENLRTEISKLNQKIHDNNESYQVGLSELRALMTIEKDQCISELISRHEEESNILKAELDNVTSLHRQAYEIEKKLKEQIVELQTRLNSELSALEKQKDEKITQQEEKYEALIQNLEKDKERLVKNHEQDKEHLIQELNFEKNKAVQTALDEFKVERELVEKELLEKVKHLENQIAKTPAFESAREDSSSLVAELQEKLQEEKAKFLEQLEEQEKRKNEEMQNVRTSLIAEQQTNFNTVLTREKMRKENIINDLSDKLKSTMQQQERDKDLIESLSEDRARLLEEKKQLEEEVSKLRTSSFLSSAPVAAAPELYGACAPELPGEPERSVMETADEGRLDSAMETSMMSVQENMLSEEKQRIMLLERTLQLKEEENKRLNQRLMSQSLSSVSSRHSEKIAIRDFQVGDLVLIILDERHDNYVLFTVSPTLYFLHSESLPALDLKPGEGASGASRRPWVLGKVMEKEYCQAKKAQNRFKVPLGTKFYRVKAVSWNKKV

Molecular target: T1, Unc-51 like autophagy-activating kinase 1 (ULK1) (mouse (endogenous in MEF)) (UniProt O70405)
T1 sequence: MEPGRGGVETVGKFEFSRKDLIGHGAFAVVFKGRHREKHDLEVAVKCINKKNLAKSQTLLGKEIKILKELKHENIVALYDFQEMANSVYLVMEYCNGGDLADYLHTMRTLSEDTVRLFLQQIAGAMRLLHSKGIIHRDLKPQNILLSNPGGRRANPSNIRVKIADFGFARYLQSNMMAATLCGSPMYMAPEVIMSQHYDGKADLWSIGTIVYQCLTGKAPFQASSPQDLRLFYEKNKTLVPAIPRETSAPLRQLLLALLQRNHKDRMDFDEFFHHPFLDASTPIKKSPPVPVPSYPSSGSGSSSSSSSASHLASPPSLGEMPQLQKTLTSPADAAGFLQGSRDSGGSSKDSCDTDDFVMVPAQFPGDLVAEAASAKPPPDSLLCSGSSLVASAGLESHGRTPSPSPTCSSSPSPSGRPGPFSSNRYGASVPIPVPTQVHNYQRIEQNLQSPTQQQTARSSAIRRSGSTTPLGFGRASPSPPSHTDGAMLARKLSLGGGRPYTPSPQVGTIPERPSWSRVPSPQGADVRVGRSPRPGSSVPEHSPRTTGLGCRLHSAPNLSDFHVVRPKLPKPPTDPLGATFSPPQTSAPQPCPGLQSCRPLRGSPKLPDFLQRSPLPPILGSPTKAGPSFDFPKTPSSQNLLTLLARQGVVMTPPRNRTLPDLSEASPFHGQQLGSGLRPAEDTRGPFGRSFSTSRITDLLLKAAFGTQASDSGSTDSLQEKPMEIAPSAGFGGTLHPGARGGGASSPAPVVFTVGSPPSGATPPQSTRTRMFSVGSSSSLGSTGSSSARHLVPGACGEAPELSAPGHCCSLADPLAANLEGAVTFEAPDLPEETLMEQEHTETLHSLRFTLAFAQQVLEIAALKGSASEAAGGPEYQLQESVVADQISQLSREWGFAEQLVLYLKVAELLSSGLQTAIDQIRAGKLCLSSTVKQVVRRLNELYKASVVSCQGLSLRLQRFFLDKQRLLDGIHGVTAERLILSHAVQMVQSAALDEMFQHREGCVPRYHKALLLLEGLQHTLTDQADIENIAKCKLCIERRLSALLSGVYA
Assay: co-IP; 1 mg of total lysate protein with 7 ug ULK1 antibody (DU 34016), 60 min at 4°C, Protein A/G resin; lysis buffer 50 mM Hepes pH 7.4, 150 mM NaCl, 1 mM EDTA, 10% glycerol, 0.5% NP-40; cells in Fed or EBSS conditions treated with 2 uM MRT68921, 1 uM ULK-101, 5 uM SBI0206965 or DMSO for 1 h; blots for FIP200 and ATG13

binding: binds
Molecule: FAK family interacting protein of 200 kD (FIP200) (from UniProt Q9ESK9 1-1588)

binding: binds
B1: Autophagy related (ATG) 13 (ATG13) (protein, UniProt Q91YI1 1-516)
chain: METELSSQDRKDLDKFIKFFALKTVQVIVQARLGEKICTRSSSSPTGSDWFNLAIKDIPEVTHEAKKALSGQLPAVGRSMCVEISLKTSEGDSMELEIWCLEMNEKCDKEIKVSYTVYNRLSLLLKSLLAITRVTPAYRLSRKQGHEYVILYRIYFGEVQLNGLGEGFQTVRVGTVGTPVGTLTLSCAYRINLAFMSTRQFERTPPIMGIIIDHFVDRPYPSSSPMHPCNYRTAEDAGVAYPSVEDSQEVCTTSFSTSPPSQLSSSRLSYQPAVLGLGSADLAYPVVFTAGLNTTHAHQLMVPGKEGGVTLAPSHPTHGAQADPERLVMHMPSDGTHCAATPSSSEDTETVSNSSEGRASPHDILETIFVRKVGAFVNKPINQVTVTSLDIPFAMFAPKNLELEDADPMVNPPESPETTSPLHGSLHSDGSSGGSGGSTHDDFVMIDFKPAFSKDDILPMDLGTFYREFQNPPQLSSLSIDFGAQSMAEDLDSLPEKLAVHEKNVREFDAFVETLQ
